Measured values as given in paper PMC7910296, “Phosphorescent Ir(III) complexes conjugated with oligoarginine peptides serve as optical probes for in vivo microvascular imaging” (Scientific Reports, 2021).

Test system: albumin
Experiment: Phosphorescence decay in fetal bovine serum (interaction with albumin)
Format: binding
Details: FBS containing 1% DMSO, 37 °C, double-exponential decay
[1] = excited at 488 nm, monitored at 660 nm

(btq)2Ir(phen-pipe) [BTQphen]
share of component τ1 (in parentheses): 41%
share of component τ2 (in parentheses): 59%
τ1, phosphorescence lifetime, first component [1]: 1.65 µs
τ2, phosphorescence lifetime, second component [1]: 4.05 µs
